Paper PMC4452835
These are yes or no findings as the source states them, for the method shown. In cells and extracts the contact can be indirect. Some entries that bind do so weakly or less than the wild type.

Amino acid sequences for entries named in this document (tags omitted).
UniProt P60484: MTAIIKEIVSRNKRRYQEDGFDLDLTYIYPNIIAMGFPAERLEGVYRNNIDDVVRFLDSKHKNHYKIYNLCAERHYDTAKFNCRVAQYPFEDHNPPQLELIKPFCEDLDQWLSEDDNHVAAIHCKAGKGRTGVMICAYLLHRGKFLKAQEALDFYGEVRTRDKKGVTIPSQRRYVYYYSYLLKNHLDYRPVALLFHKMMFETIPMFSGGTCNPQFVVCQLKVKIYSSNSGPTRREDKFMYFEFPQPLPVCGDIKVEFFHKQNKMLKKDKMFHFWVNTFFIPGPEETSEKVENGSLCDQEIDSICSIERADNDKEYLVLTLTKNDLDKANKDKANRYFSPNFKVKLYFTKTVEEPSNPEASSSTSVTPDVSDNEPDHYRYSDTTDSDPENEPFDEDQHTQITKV

Target: PTEN (phosphatase and tensin homolog) (human (endogenous in PLC/PRF/5)) (UniProt P60484)
Assay: co-IP; lysates from PLC/PRF/5 cells immunoprecipitated with antibodies against HSA, AFP or PTEN; SDS-PAGE; immunoblotted with anti-HSA, anti-AFP or anti-PTEN antibody

B1: Human alpha-fetoprotein (AFP) (protein, UniProt P02771 19-609)
chain: RTLHRNEYGIASILDSYQCTAEISLADLATIFFAQFVQEATYKEVSKMVKDALTAIEKPTGDEQSSGCLENQLPAFLEELCHEKEILEKYGHSDCCSQSEEGRHNCFLAHKKPTPASIPLFQVPEPVTSCEAYEEDRETFMNKFIYEIARRHPFLYAPTILLWAARYDKIIPSCCKAENAVECFQTKAATVTKELRESSLLNQHACAVMKNFGTRTFQAITVTKLSQKFTKVNFTEIQKLVLDVAHVHEHCCRGDVLDCLQDGEKIMSYICSQQDTLSNKITECCKLTTLERGQCIIHAENDEKPEGLSPNLNRFLGDRDFNQFSSGEKNIFLASFVHEYSRRHPQLAVSVILRVAKGYQELLEKCFQTENPLECQDKGEEELQKYIQESQALAKRSCGLFQKLGEYYLQNAFLVAYTKKAPQLTSSELMAITRKMAATAATCCQLSEDKLLACGEGAADIIIGHLCIRHEMTPVNPGVGQCCTSSYANRRPCFSSLVVDETYVPPAFSDDKFIFHKDLCQAQGVALQTMKQEFLINLVKQKPQITEEQLEAVIADFSGLLEKCCQGQEQEVCFAEEGQKLISKTRAALGV
In the case of B1, the binding is reported as “binds”.
